In paper doi:10.1101/2025.10.30.685566 one finds binding data, which are given here for seven molecules.

Amino acid sequences for entries named in this document (tags omitted).
UniProt Q9NQC7: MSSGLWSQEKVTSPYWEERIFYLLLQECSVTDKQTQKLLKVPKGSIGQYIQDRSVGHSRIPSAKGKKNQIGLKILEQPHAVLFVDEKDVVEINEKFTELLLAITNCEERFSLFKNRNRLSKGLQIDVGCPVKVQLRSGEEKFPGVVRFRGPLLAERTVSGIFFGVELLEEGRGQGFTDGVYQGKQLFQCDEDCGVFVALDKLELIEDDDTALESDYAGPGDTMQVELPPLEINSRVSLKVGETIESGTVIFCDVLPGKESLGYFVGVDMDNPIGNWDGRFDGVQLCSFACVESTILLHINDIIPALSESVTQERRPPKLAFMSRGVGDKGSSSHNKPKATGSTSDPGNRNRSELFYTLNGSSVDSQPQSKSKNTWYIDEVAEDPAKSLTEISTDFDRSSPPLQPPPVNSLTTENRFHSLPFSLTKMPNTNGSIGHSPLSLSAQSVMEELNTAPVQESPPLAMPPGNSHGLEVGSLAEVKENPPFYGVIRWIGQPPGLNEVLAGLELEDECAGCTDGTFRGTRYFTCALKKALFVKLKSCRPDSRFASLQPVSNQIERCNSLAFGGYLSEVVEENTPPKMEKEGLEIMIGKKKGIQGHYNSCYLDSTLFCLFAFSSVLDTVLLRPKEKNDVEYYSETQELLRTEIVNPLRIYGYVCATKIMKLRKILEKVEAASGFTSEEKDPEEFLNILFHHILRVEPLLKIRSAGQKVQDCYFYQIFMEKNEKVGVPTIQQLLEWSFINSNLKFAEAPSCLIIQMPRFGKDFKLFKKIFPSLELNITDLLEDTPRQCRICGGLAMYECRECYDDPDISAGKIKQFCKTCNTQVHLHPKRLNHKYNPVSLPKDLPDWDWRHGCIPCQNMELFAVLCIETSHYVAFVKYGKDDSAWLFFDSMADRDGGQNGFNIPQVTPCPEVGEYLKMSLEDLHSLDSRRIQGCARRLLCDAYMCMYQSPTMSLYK
UniProt Q13114: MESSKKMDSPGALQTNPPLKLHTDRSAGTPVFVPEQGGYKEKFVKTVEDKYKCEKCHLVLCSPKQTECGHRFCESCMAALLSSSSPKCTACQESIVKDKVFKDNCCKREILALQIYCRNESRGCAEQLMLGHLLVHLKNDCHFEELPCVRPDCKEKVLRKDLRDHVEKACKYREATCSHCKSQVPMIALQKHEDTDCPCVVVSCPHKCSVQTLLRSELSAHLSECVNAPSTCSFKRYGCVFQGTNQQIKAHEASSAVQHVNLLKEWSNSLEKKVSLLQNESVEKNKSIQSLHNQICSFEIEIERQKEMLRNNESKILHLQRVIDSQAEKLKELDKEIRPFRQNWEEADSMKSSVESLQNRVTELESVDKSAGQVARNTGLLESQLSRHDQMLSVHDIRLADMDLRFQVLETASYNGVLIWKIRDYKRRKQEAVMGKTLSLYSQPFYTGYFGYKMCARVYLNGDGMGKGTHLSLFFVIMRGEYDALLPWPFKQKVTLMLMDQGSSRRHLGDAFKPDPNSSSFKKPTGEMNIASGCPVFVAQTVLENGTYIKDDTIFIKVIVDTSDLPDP
UniProt Q8TEP8: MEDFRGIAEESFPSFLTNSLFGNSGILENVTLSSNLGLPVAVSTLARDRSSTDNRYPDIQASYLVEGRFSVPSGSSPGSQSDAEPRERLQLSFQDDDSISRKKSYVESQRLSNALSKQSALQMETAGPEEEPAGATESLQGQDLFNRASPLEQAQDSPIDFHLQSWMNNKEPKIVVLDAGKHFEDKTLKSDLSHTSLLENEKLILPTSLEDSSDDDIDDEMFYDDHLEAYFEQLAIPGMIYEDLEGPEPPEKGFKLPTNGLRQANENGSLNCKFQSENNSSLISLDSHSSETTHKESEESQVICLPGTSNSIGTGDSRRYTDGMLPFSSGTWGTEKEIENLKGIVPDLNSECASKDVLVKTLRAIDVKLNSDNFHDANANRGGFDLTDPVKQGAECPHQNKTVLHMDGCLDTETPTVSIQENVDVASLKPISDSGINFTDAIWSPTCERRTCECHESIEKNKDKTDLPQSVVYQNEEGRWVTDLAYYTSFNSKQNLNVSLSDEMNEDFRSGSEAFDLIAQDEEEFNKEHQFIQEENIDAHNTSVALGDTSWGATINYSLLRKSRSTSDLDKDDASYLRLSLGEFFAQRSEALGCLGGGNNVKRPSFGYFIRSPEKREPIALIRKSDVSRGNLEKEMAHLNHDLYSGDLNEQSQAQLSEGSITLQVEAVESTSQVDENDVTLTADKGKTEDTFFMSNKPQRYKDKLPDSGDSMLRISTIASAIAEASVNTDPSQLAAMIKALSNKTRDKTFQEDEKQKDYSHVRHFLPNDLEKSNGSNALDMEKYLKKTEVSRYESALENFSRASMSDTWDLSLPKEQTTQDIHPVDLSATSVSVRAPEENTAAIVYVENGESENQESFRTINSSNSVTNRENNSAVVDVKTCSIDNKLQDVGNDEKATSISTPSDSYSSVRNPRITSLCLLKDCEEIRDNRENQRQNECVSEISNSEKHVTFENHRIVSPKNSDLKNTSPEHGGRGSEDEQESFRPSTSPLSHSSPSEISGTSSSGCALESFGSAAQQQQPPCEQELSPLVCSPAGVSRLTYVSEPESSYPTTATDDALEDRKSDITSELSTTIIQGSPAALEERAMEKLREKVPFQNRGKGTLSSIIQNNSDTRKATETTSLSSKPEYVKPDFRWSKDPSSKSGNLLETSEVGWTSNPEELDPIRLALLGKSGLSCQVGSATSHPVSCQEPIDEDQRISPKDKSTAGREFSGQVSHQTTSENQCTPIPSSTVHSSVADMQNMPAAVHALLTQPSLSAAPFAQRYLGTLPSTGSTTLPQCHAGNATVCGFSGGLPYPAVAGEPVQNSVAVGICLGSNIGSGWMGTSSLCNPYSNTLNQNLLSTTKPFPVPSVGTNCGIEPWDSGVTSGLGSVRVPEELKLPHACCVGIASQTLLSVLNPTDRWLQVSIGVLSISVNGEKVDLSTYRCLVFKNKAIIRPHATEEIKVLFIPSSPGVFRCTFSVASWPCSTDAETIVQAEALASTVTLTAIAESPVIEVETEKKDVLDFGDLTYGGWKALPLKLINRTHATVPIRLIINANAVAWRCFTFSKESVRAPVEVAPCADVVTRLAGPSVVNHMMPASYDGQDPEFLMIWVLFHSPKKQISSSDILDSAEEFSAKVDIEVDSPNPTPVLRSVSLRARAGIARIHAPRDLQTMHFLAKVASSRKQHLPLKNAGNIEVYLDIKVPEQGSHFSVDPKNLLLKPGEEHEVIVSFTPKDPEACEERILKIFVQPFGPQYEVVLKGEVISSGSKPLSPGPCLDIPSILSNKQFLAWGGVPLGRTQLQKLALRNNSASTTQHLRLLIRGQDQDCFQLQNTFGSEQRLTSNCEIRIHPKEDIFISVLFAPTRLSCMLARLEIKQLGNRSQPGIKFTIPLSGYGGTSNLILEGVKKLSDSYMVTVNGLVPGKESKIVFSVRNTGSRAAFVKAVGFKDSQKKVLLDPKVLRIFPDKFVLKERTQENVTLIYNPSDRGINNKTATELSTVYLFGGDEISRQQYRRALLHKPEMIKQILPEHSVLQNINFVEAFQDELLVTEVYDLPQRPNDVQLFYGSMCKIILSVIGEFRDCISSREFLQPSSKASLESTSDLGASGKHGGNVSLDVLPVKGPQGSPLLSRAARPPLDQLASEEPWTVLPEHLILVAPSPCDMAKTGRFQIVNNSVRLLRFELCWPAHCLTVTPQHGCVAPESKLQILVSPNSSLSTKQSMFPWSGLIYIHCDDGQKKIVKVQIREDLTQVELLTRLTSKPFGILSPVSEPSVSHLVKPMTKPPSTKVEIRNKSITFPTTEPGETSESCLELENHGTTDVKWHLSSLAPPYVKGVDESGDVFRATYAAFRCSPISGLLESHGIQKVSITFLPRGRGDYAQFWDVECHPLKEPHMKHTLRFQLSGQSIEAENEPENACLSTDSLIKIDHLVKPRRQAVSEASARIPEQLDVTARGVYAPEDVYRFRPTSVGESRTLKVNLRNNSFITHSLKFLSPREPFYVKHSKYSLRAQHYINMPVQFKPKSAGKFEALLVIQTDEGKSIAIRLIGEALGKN
UniProt Q5T5P2: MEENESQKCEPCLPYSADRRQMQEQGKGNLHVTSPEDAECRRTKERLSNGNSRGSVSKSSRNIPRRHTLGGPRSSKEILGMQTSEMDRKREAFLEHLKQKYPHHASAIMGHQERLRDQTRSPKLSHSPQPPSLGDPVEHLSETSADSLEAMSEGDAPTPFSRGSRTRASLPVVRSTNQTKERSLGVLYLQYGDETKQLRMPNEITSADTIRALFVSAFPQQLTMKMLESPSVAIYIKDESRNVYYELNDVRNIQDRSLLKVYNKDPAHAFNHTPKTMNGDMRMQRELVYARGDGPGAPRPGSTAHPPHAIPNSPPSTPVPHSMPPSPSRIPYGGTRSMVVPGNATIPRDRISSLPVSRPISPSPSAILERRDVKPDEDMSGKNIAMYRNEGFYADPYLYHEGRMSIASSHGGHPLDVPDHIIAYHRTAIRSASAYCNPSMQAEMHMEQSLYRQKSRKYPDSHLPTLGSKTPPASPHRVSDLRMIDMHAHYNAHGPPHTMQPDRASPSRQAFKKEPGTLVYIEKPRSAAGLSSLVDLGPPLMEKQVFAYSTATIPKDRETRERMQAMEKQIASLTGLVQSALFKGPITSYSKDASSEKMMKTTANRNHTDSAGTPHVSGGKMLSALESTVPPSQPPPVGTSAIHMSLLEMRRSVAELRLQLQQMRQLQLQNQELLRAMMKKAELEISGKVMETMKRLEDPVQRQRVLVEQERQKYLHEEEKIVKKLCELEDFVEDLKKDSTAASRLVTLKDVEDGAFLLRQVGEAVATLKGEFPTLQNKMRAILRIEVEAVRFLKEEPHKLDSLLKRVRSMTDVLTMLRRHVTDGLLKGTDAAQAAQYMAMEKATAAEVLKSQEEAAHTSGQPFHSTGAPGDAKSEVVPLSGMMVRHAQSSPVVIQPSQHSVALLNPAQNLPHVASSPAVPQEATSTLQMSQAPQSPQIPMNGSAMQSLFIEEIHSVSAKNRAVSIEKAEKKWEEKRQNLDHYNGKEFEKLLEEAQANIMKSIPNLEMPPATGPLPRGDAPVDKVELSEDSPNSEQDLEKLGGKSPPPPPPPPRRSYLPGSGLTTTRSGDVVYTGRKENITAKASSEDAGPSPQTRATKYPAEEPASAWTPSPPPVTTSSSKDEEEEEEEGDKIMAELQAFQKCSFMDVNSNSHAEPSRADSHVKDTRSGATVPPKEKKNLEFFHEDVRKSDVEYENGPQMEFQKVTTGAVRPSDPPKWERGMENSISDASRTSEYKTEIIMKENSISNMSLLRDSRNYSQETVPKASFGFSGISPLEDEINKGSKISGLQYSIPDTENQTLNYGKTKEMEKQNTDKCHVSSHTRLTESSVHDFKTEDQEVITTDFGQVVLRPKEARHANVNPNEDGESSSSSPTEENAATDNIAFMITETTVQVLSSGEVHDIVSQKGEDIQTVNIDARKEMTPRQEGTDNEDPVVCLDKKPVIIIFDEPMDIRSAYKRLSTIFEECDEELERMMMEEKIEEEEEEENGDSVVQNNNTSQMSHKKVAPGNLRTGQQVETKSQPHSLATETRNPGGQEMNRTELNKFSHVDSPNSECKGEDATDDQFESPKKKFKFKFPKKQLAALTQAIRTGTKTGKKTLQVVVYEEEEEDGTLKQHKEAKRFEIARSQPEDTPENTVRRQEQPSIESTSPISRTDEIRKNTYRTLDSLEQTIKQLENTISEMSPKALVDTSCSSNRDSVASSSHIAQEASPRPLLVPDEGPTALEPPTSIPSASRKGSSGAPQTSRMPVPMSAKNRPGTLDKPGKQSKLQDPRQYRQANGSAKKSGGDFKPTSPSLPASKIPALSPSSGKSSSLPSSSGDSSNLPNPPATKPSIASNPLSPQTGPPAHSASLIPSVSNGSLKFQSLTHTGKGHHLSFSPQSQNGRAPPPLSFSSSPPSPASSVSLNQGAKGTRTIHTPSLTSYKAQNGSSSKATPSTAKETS

These are yes or no findings as the source states them, for the method shown. In cells and extracts the contact can be indirect. These calls come from enrichment with a bait or labelling near it, and not all partners need be listed.

The chains are these.
B1: HAUS3 (protein, UniProt Q68CZ6 1-603)
chain: MSCGNEFVETLKKIGYPKADNLNGEDFDWLFEGVEDESFLKWFCGNVNEQNVLSERELEAFSILQKSGKPILEGAALDEALKTCKTSDLKTPRLDDKELEKLEDEVQTLLKLKNLKIQRRNKCQLMASVTSHKSLRLNAKEEEATKKLKQSQGILNAMITKISNELQALTDEVTQLMMFFRHSNLGQGTNPLVFLSQFSLEKYLSQEEQSTAALTLYTKKQFFQGIHEVVESSNEDNFQLLDIQTPSICDNQEILEERRLEMARLQLAYICAQHQLIHLKASNSSMKSSIKWAEESLHSLTSKAVDKENLDAKISSLTSEIMKLEKEVTQIKDRSLPAVVRENAQLLNMPVVKGDFDLQIAKQDYYTARQELVLNQLIKQKASFELLQLSYEIELRKHRDIYRQLENLVQELSQSNMMLYKQLEMLTDPSVSQQINPRNTIDTKDYSTHRLYQVLEGENKKKELFLTHGNLEEVAEKLKQNISLVQDQLAVSAQEHSFFLSKRNKDVDMLCDTLYQGGNQLLLSDQELTEQFHKVESQLNKLNHLLTDILADVKTKRKTLANNKLHQMEREFYVYFLKDEDYLKDIVENLETQSKIKAVSLED
B2: SAS6 (protein, UniProt Q6UVJ0 1-657)
chain: MSQVLFHQLVPLQVKCKDCEERRVSIRMSIELQSVSNPVHRKDLVIRLTDDTDPFFLYNLVISEEDFQSLKFQQGLLVDFLAFPQKFIDLLQQCTQEHAKEIPRFLLQLVSPAAILDNSPAFLNVVETNPFKHLTHLSLKLLPGNDVEIKKFLAGCLKCSKEEKLSLMQSLDDATKQLDFTRKTLAEKKQELDKLRNEWASHTAALTNKHSQELTNEKEKALQAQVQYQQQHEQQKKDLEILHQQNIHQLQNRLSELEAANKDLTERKYKGDSTIRELKAKLSGVEEELQRTKQEVLSLRRENSTLDVECHEKEKHVNQLQTKVAVLEQEIKDKDQLVLRTKEAFDTIQEQKVVLEENGEKNQVQLGKLEATIKSLSAELLKANEIIKKLQGDLKTLMGKLKLKNTVTIQQEKLLAEKEEKLQKEQKELQDVGQSLRIKEQEVCKLQEQLEATVKKLEESKQLLKNNEKLITWLNKELNENQLVRKQDVLGPSTTPPAHSSSNTIRSGISPNLNVVDGRLTYPTCGIGYPVSSAFAFQNTFPHSISAKNTSHPGSGTKVQFNLQFTKPNASLGDVQSGATISMPCSTDKENGENVGLESKYLKKREDSIPLRGLSQNLFSNSDHQRDGTLGALHTSSKPTALPSASSAYFPGQLPNS
B3: SPATA2L (protein, UniProt Q8IUW3 1-424)
chain: MGSSSLSEDYRQCLERELRRGRAGVCGDPSLRAVLWQILVEDFDLHGALQDDALALLTDGLWGRADLAPALRGLARAFELLELAAVHLYLLPWRKEFTTIKTFSGGYVHVLKGVLSDDLLLKSFQKMGYVRRDSHRLMVTALPPACQLVQVALGCFALRLECEILGEVLAQLGTSVLPAEELLQARRASGDVASCVAWLQQRLAQDEEPPPLPPRGSPAAYRAPLDLYRDLQEDEGSEDASLYGEPSPGPDSPPAELAYRPPLWEQSAKLWGTGGRAWEPPAEELPQASSPPYGALEEGLEPEPSAFSFLSLRRELSRPGDLATPESSAAASPRRIRAEGVPASAYRSVSEPPGYQAHSCLSPGALPTLCCDTCRQLHAAHCAALPACRPGHSLRVLLGDAQRRLWLQRAQMDTLLYNSPGARP
B4: SPATA2 (protein, UniProt Q9UM82 1-520)
chain: MGKPSSMDTKFKDDLFRKYVQFHESKVDTTTSRQRPGSDECLRVAASTLLSLHKVDPFYRFRLIQFYEVVESSLRSLSSSSLRALHGAFSMLETVGINLFLYPWKKEFRSIKTYTGPFVYYVKSTLLEEDIRAILSCMGYTPELGTAYKLRELVETLQVKMVSFELFLAKVECEQMLEIHSQVKDKGYSELDIVSERKSSAEDVRGCSDALRRRAEGREHLTASMSRVALQKSASERAAKDYYKPRVTKPSRSVDAYDSYWESRKPPLKASLSLRKEPVATDVGDDLKDEIIRPSPSLLTMASSPHGSPDVLPPASPSNGPALLRGTYFSTQDDVDLYTDSEPRATYRRQDALRPDVWLLRNDAHSLYHKRSPPAKESALSKCQSCGLSCSSSLCQRCDSLLTCPPASKPSAFPSKASTHDSLAHGASLREKYPGQTQGLDRLPHLHSKSKPSTTPTSRCGFCNRPGATNTCTQCSKVSCDACLSAYHYDPCYKKSELHKFMPNNQLNYKSTQLSHLVYR

This assay concerns the target myc-BirA*-CYLD (UniProt Q9NQC7). The assay is described as follows: proximity labelling.
Take TRAF3 (from UniProt Q13114 1-568): the binding result is “binds”. For CEP192 (from UniProt Q8TEP8 1-2537), the binding entry was “binds”.

Regarding “KIAA1217 (endogenous) (from UniProt Q5T5P2 1-1943)”, the binding result is given as “binds”. As to B1, the binding result is “binds”. With B2 the entry was “binds”. Turning to B3, the binding result is “binds”.

For B4, the binding result was “binds”.
